This experiment addresses T1, endogenous mouse GCNA in adult testis (mouse (endogenous in testis)).
T1 sequence: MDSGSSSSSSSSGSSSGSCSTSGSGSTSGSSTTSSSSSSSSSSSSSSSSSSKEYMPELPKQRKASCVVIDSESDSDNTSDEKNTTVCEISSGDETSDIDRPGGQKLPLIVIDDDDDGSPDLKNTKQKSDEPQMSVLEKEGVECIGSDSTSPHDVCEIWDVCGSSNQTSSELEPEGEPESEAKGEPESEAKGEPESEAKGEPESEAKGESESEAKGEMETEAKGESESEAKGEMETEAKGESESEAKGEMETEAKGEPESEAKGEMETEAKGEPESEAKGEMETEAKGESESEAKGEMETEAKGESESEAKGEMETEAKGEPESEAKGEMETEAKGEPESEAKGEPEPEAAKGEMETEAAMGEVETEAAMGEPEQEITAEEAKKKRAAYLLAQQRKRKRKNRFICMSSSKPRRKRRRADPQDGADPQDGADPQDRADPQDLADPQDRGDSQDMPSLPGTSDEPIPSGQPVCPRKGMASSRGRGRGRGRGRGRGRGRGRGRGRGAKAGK
As to the kind of experiment: proximity ligation; Duolink PLA on formalin-fixed adult mouse testis sections, wild-type against Gcna-/Y; anti-GCNA (Tra98) with anti-PCNA or anti-histone H3.

Amino acid sequences for entries named in this document (tags omitted).
UniProt P17918: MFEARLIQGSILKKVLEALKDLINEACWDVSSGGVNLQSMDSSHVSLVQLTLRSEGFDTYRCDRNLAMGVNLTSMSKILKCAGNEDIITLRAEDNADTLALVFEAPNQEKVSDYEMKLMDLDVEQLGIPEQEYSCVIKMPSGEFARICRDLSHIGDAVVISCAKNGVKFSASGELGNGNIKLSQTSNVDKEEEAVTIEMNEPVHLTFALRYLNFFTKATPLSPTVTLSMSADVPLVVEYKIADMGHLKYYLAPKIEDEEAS

Results are given in words; binding and its absence hold for the method and conditions named. Binding seen in cells or lysates may run through a third protein. Some entries that bind do so weakly or less than the wild type.

On to “PCNA, endogenous in mouse testis (from UniProt P17918 1-261)”, for which the binding result is “binds”.

These data come from paper PMC10250205.
